Assay results published in patent publication US10603357B2 (Universite de Lorraine, priority 2004, dated 2020).
Plain letter strings leave the end groups untold.

Experiment: peptide made by a vendor
Conditions: whole synthesis

## LQVTDSGLYRCVIYHPP
  isolated yield: greater than 99%
